Measurements published in PubChem BioAssay AID1347076 (National Center for Advancing Translational Sciences (NCATS), 2019).
About 13,000 (3.2%) of roughly 400,000 compounds were called active. Inconclusive means that the source gave no clear call. Such entries were picked first, then a sample of the others. Calls come from the whole dose curve; as a rule, active = well fitted cell-killing curve with a large enough effect; inconclusive = small, poorly fitted or top-dose-only effect, or effect the other way; inactive = flat fitted curve, though single readings scatter. A potency beside an inconclusive call is a rough fit, not a confirmed value.

Assay: qHTS assay for MDR1-selective chemotherapeutics: Primary screen using the drug-selected MDR subline cells KB-V1; note: nearly all actives have a fitted effect of over 60% in size
Details: KB-V1 MDR cells viability, CellTiter-Glo, 72 h; activity change, negative = cytotoxicity: at 46.1 µM (top of the series)
Procedure, shortened: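 qHTS viability screen in drug-selected KB-V1 MDR cells: 72 h compound treatment at 37 degrees C, ATP luminescence end point.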
% is set by controls: 0 for no effect and ±100 for the full control effect; potency is the fitted concentration of half-maximal effect.

Compound	activity change, negative = cytotoxicity	Potency
COc1ccc(N2CCN(C(=S)NC(=O)c3cccs3)CC2)c([N+](=O)[O-])c1	inconclusive: -48.5%	
CCOC(=O)COc1nc(Nc2ccccc2C)nc(N(C)C)n1		inconclusive: 35.5 µM [cytotoxic, single point]
CO[C@H]1CN(C)C(=O)c2cc(NC(=O)C3CCCC3)ccc2OC[C@@H](C)NC[C@H]1C	inactive: 3.22%	
O=C(COC(=O)c1ccc(Cl)c(S(=O)(=O)N2CCCCC2)c1)NCC1CCCO1 (stereo unspecified)		inconclusive: 29.1 µM [rising, single point]
CCc1cc(C(=O)N=Nc2c(O)[nH]c3c(Br)cc(Br)cc23)c2ccccc2n1	inactive: 0.409%	
C=Cc1ccc(C(=O)N2CCCC(Nc3ccc4c(c3)OCCO4)C2)cc1 (stereo unspecified)		inconclusive: 20.6 µM [cytotoxic, single point]
Cn1cccc1/C=N/NC(=O)c1cccc(OC(F)(F)C(F)F)c1		inconclusive: 3.66 µM [rising, full curve]
O=c1[nH]c2cc(Cl)c(Cl)cc2o1		inconclusive: 20.6 µM [cytotoxic, single point]
COc1ccc(-c2cc(C(=O)Nc3ccc(Br)cc3)no2)cc1	inactive: -9.15%	
COc1ccc(CNC(=O)c2c(Nc3ccccc3C)sc(C(=O)c3ccccc3)c2N)cc1		inconclusive: 29.1 µM [cytotoxic, single point]
C/C(=N\Nc1ccc(S(N)(=O)=O)cc1[N+](=O)[O-])c1cccnc1	inactive: -2.13%	
O=C(Cc1cccs1)Nc1nc2c(s1)CCCC2		active: 11.6 µM
Cn1cc(/C=C2\SC(=O)N(c3ccc(O)cc3)C2=O)c2ccccc21		inconclusive: 20.6 µM [cytotoxic, single point]
COc1ccc(S(=O)(=O)Nc2cc(C)c(O)c(S(=O)(=O)c3ccccc3)c2)cc1		active: 16.4 µM
COc1ccc(-c2cc(C(=O)N/N=C(\C)c3cccnc3)c3cc(C)ccc3n2)cc1OC	inactive: 0%	
Cc1cccc(C(=O)Nc2ccccc2SCC2CSc3nc4ccccc4c(=O)n32)c1 (stereo unspecified)		inconclusive: 29.1 µM [cytotoxic, single point]
Cc1ccc(NC(=O)CN2C(=O)CCc3cc(S(=O)(=O)N4CCCCC4)ccc32)cc1N(C)C		inconclusive: 29.1 µM [cytotoxic, single point]
Cc1csc(NC(=O)CSc2nnc(-c3ccoc3C)n2Cc2ccco2)n1		inconclusive: 20.6 µM [cytotoxic, partial curve]
CC(=O)Nc1ccc(S(=O)(=O)NCCCN2CCN(Cc3ccccc3)CC2)cc1Cl	inconclusive: -10.7%	
O=C(NC1CCCC1)C(c1ccccc1)N(C(=O)c1csnn1)C1CCCC1 (stereo unspecified)		inconclusive: 8.2 µM [cytotoxic, partial curve]
COc1ccccc1CNC(=O)COC(=O)c1ccc(C)c(S(=O)(=O)N2CCCCC2)c1	inactive: 0.222%	
COc1cccc(/C=C/c2ccc3ccccc3n2)c1OC(C)=O		inconclusive: 14.6 µM [cytotoxic, partial curve, poor fit]
O=C(CN1CCOCC1)Nc1ncc(Cc2cccc(Cl)c2)s1	inactive: -21.5%	

Compound	activity change, negative = cytotoxicity	Potency
COCCCn1c(O)c(/C=C2\N=C(C#N)C(=Nc3ccc(C)cc3)O2)sc1=S		inconclusive: 29.1 µM [cytotoxic, single point]
CCOC(=O)c1sc2ccccc2c1S(=O)(=O)N1CCN(c2ccccc2)CC1		inconclusive: 20.6 µM [cytotoxic, single point]
Cc1ccc2oc(Nc3nc(-c4ccccc4)cc(=O)[nH]3)nc2c1		inconclusive: 20.6 µM [cytotoxic, single point]
O=c1c([N+](=O)[O-])cccn1Cc1ccc(F)cc1Cl		inconclusive: 18.4 µM [cytotoxic, single point]
Cc1c(C(=O)NCc2cccc(C(F)(F)F)c2)sc(=O)n1Cc1ccc(F)cc1		inconclusive: 20.6 µM [cytotoxic, single point]
CC1(C)Cc2ccccc2-c2nnc(SCC(=O)N3CCc4ccccc43)n21		active: 4.11 µM
CCOC(=O)N1CCN(c2ccncc2S(=O)(=O)N2CCCCC2)CC1		inconclusive: 29.1 µM [cytotoxic, single point]
Cc1ccc(S(=O)(=O)c2nc(Nc3ccccc3C#N)sc2Cl)cc1	inactive: -4.42%	
Cc1c(O)ccc(C(=O)COc2ccccc2F)c1O	inactive: 6.68%	
CCOC(=O)c1sc(NC(=O)CSc2nnc(C(C)C)n2C)nc1C		active: 23.1 µM
O=C(NC1CCCC1)C1C2C=CC3(CN(Cc4cccs4)C(=O)C13)O2 (stereo unspecified)		inconclusive: 2.91 µM [rising, partial curve, poor fit]
Cc1onc(-c2c(Cl)cccc2Cl)c1NC(=O)NC1CCSC1 (stereo unspecified)	inconclusive: 6.75%	
CCOc1ccc(C(=O)NCC(=O)N2CCC3CCCCC3C2)cc1OCC (stereo unspecified)		inconclusive: 6.51 µM [cytotoxic, full curve]
Cc1ccc2cc(C#N)c(SCC(=O)N3CCCc4ccccc43)nc2c1C		active: 2.59 µM
Cc1ccc([C@H]2C[C@@H](O)[C@H](n3cc(C4CC4)nn3)CN2C(=O)c2cccs2)cc1		inconclusive: 29.1 µM [rising, single point]
COc1cc(/C=C/C2=NNC(=O)CC2)cc(OC)c1OC		inconclusive: 16.4 µM [cytotoxic, partial curve, poor fit]
CCOc1ccccc1C1c2cc3c(cc2OC(C)(N2CCCC2)C1C)OCO3 (stereo unspecified)	inactive: 7.25%	
Clc1ccc(/C=C/c2ccc3ccccc3n2)cc1Cl	inactive: 1.57%	
Cc1[nH]c2ccc(C(=O)OC(C)C(=O)N(C)C3CCCCC3)cc2c1C (stereo unspecified)	inactive: -15.9%	
CCCNc1ccc(-c2nc(-c3ccncc3)no2)cc1[N+](=O)[O-]	inactive: 12.8%	
Cc1nn(-c2ccccc2)c(Cl)c1C1C(C#N)=C(N)Oc2n[nH]c(C)c21 (stereo unspecified)		inconclusive: 20.6 µM [rising, partial curve, poor fit]
O=C1Nc2ccccc2CCc2ccccc21		inconclusive: 29.1 µM [rising, single point]
COc1ccccc1N(CC(=O)Nc1cccnc1)S(=O)(=O)c1ccccc1		inconclusive: 9.2 µM [cytotoxic, partial curve]

Taken from above:
Potency, `COc1ccc(CNC(=O)c2c(Nc3ccccc3C)sc(C(=O)c3ccccc3)c2N)cc1` is entered as inconclusive: 29.1 µM [cytotoxic, single point]
Potency, `Cc1ccc2cc(C#N)c(SCC(=O)N3CCCc4ccccc43)nc2c1C` is entered as active: 2.59 µM
